In the supplement of paper PMC12823440, “Inhibitors supercharge kinase turnover through native proteolytic circuits” (Nature, 2025):
Some of the results follow. The calls rarely recur for the same compound in another form.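 Kinases, fused to nanoluciferase, were expressed in K562 cells; luminescence was measured every 4 h from 2 to 18 h as percent of control (DMSO = 100%, positive control = 0%). A time point is decreased if signal falls significantly (2 sigma). Hits were called by the authors by a rule that is not shown; the count of time points alone does not decide it.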

By UniProt entry, the sequences of proteins in these tests, tags left out. Where a name states a change or a piece, a line headed by the entry shows the natural chain unless it says otherwise.
UniProt Q6PHR2: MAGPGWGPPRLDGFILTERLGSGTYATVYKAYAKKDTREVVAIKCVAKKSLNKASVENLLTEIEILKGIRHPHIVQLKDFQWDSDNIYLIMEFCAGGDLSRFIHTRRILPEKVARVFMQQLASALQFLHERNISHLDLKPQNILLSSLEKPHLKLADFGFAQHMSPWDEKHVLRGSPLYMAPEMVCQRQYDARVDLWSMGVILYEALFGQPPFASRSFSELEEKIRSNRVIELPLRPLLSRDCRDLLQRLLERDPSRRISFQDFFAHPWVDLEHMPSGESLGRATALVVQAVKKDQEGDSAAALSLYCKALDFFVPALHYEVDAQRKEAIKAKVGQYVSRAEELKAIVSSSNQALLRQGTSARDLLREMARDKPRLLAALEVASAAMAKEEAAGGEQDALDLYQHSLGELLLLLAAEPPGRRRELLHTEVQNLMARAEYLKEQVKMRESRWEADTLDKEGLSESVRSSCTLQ
UniProt Q08345: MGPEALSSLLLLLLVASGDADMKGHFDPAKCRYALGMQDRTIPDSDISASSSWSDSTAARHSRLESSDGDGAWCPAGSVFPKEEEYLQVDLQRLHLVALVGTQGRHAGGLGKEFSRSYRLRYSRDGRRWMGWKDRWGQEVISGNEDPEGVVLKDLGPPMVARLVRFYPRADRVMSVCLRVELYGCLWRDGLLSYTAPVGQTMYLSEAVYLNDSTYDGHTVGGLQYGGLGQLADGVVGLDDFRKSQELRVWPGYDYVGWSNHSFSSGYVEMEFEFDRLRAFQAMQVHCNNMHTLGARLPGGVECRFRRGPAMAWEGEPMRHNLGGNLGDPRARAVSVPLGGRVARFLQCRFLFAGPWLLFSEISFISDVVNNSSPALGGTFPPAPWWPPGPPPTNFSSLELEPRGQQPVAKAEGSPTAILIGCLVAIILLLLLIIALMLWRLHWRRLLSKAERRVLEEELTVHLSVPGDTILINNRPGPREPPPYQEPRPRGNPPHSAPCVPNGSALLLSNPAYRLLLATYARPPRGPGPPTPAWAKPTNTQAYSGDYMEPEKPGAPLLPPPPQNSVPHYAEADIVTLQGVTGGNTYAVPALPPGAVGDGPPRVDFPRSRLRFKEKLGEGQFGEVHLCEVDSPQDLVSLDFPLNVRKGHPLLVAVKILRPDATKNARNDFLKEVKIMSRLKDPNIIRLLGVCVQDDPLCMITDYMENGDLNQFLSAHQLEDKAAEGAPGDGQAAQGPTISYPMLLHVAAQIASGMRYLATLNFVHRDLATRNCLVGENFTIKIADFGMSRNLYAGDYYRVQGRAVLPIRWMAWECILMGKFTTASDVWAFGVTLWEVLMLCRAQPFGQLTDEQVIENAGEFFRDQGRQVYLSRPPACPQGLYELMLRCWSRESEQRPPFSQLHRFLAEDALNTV
UniProt Q9BRS2: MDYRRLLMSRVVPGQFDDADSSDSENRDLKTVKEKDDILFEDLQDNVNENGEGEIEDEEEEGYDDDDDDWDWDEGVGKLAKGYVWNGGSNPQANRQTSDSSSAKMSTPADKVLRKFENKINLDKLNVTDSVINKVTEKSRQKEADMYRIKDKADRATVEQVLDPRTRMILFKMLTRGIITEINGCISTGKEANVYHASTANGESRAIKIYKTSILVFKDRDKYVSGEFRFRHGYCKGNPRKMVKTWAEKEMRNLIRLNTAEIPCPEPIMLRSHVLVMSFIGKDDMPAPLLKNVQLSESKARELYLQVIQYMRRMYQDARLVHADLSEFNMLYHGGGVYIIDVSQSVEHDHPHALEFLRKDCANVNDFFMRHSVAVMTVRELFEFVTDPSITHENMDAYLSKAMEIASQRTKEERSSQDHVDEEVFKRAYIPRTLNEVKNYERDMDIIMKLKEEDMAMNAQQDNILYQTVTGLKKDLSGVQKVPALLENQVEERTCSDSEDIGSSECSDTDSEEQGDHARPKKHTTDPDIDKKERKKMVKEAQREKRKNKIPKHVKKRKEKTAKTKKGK
UniProt P15056, whole entry, looked up: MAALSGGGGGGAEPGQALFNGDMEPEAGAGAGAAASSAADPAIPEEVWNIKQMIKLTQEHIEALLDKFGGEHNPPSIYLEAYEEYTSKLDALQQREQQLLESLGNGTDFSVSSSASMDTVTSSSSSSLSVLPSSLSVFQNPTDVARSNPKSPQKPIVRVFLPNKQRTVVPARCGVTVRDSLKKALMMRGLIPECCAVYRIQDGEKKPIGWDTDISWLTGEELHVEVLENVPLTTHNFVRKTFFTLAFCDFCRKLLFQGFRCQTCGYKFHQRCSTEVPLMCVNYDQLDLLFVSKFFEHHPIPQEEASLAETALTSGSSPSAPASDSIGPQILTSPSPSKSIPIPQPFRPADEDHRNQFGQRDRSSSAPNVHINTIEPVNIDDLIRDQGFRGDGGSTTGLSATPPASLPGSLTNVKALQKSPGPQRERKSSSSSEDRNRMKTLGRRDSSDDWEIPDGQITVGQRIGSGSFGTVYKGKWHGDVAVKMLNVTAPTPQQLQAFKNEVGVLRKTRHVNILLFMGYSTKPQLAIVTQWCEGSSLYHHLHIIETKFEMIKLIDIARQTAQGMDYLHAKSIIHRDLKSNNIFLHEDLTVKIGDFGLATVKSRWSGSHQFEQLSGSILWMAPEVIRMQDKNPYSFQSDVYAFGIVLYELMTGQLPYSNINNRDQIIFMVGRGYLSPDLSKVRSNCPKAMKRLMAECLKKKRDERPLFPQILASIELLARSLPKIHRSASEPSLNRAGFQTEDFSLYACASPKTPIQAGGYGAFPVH
UniProt P10398: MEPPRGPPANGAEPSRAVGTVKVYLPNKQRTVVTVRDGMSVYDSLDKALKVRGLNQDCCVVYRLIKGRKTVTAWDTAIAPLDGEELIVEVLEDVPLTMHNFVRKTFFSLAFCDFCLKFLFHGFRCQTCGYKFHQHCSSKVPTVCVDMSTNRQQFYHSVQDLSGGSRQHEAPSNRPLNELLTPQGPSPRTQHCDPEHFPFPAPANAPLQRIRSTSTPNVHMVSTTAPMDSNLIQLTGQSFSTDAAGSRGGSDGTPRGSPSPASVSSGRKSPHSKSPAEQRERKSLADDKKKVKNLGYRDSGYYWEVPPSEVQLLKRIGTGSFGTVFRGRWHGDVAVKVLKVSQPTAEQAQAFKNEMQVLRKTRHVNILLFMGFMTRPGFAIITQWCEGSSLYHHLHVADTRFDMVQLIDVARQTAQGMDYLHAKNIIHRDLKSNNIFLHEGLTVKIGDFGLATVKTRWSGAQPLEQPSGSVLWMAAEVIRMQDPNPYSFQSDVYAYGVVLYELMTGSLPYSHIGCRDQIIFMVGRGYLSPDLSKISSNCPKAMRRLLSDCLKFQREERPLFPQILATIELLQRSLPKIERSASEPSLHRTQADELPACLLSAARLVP
UniProt O15530: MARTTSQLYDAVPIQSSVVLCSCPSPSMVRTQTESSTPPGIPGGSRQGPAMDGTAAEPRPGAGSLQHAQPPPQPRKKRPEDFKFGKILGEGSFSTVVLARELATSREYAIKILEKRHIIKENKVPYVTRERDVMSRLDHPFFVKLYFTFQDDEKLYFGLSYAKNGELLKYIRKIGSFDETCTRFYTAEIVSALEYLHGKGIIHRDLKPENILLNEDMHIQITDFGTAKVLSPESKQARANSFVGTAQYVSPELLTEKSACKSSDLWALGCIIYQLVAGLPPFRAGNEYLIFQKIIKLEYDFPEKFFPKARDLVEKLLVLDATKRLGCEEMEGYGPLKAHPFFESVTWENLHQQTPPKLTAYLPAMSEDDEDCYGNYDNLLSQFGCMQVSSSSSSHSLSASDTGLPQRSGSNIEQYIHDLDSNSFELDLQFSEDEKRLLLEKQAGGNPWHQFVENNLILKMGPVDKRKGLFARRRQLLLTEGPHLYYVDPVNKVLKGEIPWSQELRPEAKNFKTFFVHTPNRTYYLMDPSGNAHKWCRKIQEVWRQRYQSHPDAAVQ
UniProt O96013: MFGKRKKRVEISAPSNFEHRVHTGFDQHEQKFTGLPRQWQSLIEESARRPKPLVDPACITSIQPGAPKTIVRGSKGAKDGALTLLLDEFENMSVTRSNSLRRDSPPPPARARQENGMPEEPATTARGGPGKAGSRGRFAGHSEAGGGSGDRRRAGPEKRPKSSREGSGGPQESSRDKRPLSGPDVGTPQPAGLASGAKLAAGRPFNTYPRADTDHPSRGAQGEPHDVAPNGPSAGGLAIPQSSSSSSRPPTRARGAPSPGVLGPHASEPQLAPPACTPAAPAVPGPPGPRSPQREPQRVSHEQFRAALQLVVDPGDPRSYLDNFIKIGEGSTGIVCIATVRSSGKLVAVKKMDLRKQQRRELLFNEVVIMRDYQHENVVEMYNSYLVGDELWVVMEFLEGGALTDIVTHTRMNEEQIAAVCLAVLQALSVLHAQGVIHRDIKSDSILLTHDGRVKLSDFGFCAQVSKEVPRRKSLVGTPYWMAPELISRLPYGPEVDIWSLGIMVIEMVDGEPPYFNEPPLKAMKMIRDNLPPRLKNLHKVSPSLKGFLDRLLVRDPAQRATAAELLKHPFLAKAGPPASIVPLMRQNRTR
UniProt Q00526: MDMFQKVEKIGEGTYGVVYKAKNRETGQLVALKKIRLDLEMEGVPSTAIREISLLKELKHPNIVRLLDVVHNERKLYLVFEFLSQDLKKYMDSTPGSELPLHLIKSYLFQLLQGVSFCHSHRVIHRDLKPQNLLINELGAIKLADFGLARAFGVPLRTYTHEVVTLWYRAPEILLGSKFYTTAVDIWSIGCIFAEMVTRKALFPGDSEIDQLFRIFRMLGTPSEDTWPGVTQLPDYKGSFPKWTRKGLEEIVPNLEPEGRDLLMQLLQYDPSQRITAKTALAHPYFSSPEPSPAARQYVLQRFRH
UniProt Q9UQM7, whole entry: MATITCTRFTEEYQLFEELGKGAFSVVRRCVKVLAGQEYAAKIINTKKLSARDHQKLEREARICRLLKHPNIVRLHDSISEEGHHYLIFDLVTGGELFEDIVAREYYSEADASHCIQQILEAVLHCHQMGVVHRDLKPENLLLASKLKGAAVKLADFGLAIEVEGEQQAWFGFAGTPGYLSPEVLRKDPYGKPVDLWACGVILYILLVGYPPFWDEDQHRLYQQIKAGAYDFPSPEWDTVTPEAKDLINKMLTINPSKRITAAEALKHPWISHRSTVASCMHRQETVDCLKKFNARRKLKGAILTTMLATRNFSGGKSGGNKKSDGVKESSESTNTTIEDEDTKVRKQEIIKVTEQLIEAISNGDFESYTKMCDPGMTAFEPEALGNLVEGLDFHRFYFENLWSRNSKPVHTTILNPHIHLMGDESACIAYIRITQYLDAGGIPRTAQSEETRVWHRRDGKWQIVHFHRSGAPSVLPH
UniProt P28482, whole entry: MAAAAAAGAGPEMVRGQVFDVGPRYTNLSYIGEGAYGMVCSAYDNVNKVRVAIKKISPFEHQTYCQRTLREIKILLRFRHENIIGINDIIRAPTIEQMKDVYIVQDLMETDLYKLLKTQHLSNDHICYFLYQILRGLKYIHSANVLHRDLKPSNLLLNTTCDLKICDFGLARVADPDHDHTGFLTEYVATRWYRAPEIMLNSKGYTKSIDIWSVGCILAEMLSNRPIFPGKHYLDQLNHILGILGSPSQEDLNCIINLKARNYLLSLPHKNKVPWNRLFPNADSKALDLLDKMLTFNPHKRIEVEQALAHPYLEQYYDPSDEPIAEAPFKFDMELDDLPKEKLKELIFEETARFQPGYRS

What follows are targets tested with CN1CCN(c2nc(C3=C(c4c[nH]c5ccccc45)C(=O)NC3=O)c3ccccc3n2)CC1 [Sotrastaurin] (assay: number of time points (of 5) at which kinase-Nluc abundance scored as decreased, DMSO-normalised (count); higher = more persistent destabilization). Details: 2.5 µM; K562; 2-18 h.

Target	number of time points
ULK3 (UniProt Q6PHR2)	0
DDR1 (UniProt Q08345)	0
CDK10 (UniProt Q15131)	0
RIOK1 (UniProt Q9BRS2)	0
YES1 (UniProt P07947)	0
AURKB (UniProt Q96GD4)	0
BRAF (UniProt P15056)	0
DYRK2 (UniProt Q92630)	0
ARAF (UniProt P10398)	0
MAP2K2 (UniProt P36507)	0
CDK2 (UniProt P24941)	0
PDPK1 (UniProt O15530)	0
STK24 (UniProt Q9Y6E0)	0
PAK4 (UniProt O96013)	0
ZAK (UniProt Q9NYL2)	0
NTRK2 (UniProt Q16620)	0

Target	number of time points
CDK3 (UniProt Q00526)	0
CAMK2A (UniProt Q9UQM7)	0
RIPK2 (UniProt O43353)	0
CAMK2G (UniProt Q13555)	0
DYRK1B (UniProt Q9Y463)	0
PRKCA (UniProt P17252)	0
MAPK1 (UniProt P28482)	0
MKNK1 (UniProt Q9BUB5)	0
FGR (UniProt P09769)	0
RIPK1 (UniProt Q13546)	0
AKT1 (UniProt P31749)	0
MAPKAPK2 (UniProt P49137)	0
SRC (UniProt P12931)	0
PIK4CB (UniProt Q9UBF8)	1
MAP2K1 (UniProt Q02750)	0

2 consecutive records out of the list so far:
Target	number of time points
RIPK2 (UniProt O43353)	0
CAMK2G (UniProt Q13555)	0
